Laboratory results reported in PubChem BioAssay AID248 (DTP/NCI, 2004).
The list shows only some results of the screen, not a fair sample: it gathers tests that were run many times, whatever their T/C, doses with no T/C, and many T/C values between a quarter and a half above the control. Further doses and runs are listed elsewhere. T/C gives the treated animals as a percentage of the vehicle group. Some doses have a count of surviving animals in place of a T/C: the source holds a T/C of zero for them, seemingly a mark for toxic or unscored doses. Some doses without a T/C left all or most animals alive at the check, yet need not have been tolerated: the source hardly ever lists a survival T/C far under the control, and the zero likely stands for such cases as well. Survivors were counted at the toxicity check, usually on the fifth day, unless a day is given; later deaths do not show. Schedule codes are those of the source, taken here to give the interval after Q, in days (D) or hours (H), and the number of doses after X. Some entries hold several experiments; the results are listed from low to high. Some molecules as drawn cover several salts, stereoisomers or complexes of the source; a dose is that of the sample tested. Some schedules carry Z or #; the key to these is not given. Signs of the kind (2×) give the number of equal values in this list. Where survival is the endpoint, this PubChem deposit counts one and a half times the control or more as active, and values a quarter to a half above the control carry no call in these data; other NCI protocols may use other cut-offs. Some T/C values are followed by the survivors on the day toxicity was checked, most often the fifth; without a count, all were alive then.

System: L1210 leukemia ip in BDF1 mice, survival T/C
Test: NCI In Vivo Anticancer Drug Screen. Data for tumor model L1210 Leukemia (intraperitoneal) in B6D2F1 (BDF1) mice
Settings: T/C endpoint: mean survival time, higher T/C = longer survival
[1] = dose: 512.0 mg/kg/injection, schedule: Q01DX001 (ip), vehicle: saline
[2] = dose: 100.0 mg/kg/injection, schedule: Q01DX009 (ip), vehicle: saline with Tween-80
[3] = dose: 200.0 mg/kg/injection, schedule: Q01DX009 (ip), vehicle: saline with Tween-80
[4] = dose: 100.0 mg/kg/injection, schedule: Q01DX009 (ip), vehicle: Klucel (hydroxypropylcellulose) (HPC)
[5] = dose: 200.0 mg/kg/injection, schedule: Q01DX001 (ip), vehicle: saline
[6] = dose: 200.0 mg/kg/injection, schedule: Q01DX009 (ip), vehicle: Klucel (hydroxypropylcellulose) (HPC)
[7] = dose: 400.0 mg/kg/injection, schedule: Q01DX001 (ip), vehicle: saline
[8] = dose: 400.0 mg/kg/injection, schedule: Q01DX009 (ip), vehicle: Klucel (hydroxypropylcellulose) (HPC)
[9] = dose: 400.0 mg/kg/injection, schedule: Q04DX003 (ip), vehicle: saline
[10] = dose: 400.0 mg/kg/injection, schedule: Q04DX002 (ip), vehicle: saline
[11] = dose: 400.0 mg/kg/injection, schedule: Q04DX002 (ip), vehicle: saline with Tween-80

Question: What does the source list for O=C(NP(=O)(N1CC1)N1CC1)c1cc(I)ccc1I?
Answer: T/C (dose: 1.0 mg/kg/injection, schedule: Q01DX009 (ip), vehicle: saline): 137 % of control; T/C (dose: 2.0 mg/kg/injection, schedule: Q04DX003 (ip), vehicle: saline with Tween-80): 125 % of control; T/C (dose: 4.0 mg/kg/injection, schedule: Q04DX003 (ip), vehicle: saline): 127 % of control; T/C (dose: 8.0 mg/kg/injection, schedule: Q04DX003 (ip), vehicle: saline): 137 % of control; T/C (dose: 16.0 mg/kg/injection, schedule: Q01DX009 (ip), vehicle: saline with Tween-80): 133 % of control; T/C (dose: 16.0 mg/kg/injection, schedule: Q04DX003 (ip), vehicle: saline with Tween-80): 125 % of control; T/C (dose: 16.0 mg/kg/injection, schedule: Q04DX003 (ip), vehicle: saline): 133 % of control; T/C (dose: 32.0 mg/kg/injection, schedule: Q01DX009 (ip), vehicle: saline): 135 % of control; T/C (dose: 32.0 mg/kg/injection, schedule: Q04DX003 (ip), vehicle: saline with Tween-80): 147 % of control [9 of 10 alive]; T/C (dose: 64.0 mg/kg/injection, schedule: Q01DX009 (ip), vehicle: saline): 143 % of control; T/C (dose: 64.0 mg/kg/injection, schedule: Q04DX003 (ip), vehicle: saline with Tween-80): 141 % of control; T/C (dose: 64.0 mg/kg/injection, schedule: Q04DX003 (ip), vehicle: saline, evaluated on day 30): 142 % of control; T/C (dose: 64.0 mg/kg/injection, schedule: Q04DX003 (ip), vehicle: saline, evaluated on day 60): 126 % of control; T/C (dose: 128.0 mg/kg/injection, schedule: Q01DX001 (ip), vehicle: saline): 131 % of control; survivor count (dose: 128.0 mg/kg/injection, schedule: Q01DX009 (ip), vehicle: saline with Tween-80): 10 of 10; T/C (dose: 128.0 mg/kg/injection, schedule: Q01DX009 (ip), vehicle: saline): 127 % of control; T/C (dose: 256.0 mg/kg/injection, schedule: Q01DX001 (ip), vehicle: saline with Tween-80): 147 % of control [9 of 10 alive]; T/C (dose: 256.0 mg/kg/injection, schedule: Q01DX001 (ip), vehicle: saline): 134 % of control; T/C (dose: 256.0 mg/kg/injection, schedule: Q01DX001 (oral), vehicle: saline with Tween-80): 127 % of control [7 of 10 alive]; survivor count (dose: 256.0 mg/kg/injection, schedule: Q01DX009 (ip), vehicle: saline with Tween-80): 6 of 10; survivor count (dose: 256.0 mg/kg/injection, schedule: Q01DX009 (ip), vehicle: saline): 10 of 10 and 6 of 6; T/C [1]: 149 % of control; survivor count [1]: 8 of 10; T/C (dose: 512.0 mg/kg/injection, schedule: Q01DX001 (oral), vehicle: saline with Tween-80): 133 % of control [9 of 10 alive]; survivor count (dose: 512.0 mg/kg/injection, schedule: Q01DX009 (ip), vehicle: saline with Tween-80): 4 of 10; survivor count (dose: 512.0 mg/kg/injection, schedule: Q01DX009 (ip), vehicle: saline): 10 of 10 and 6 of 6; survivor count (dose: 512.0 mg/kg/injection, schedule: Q04DX003 (ip), vehicle: saline with Tween-80): 9 of 10; T/C (dose: 512.0 mg/kg/injection, schedule: Q04DX003 (ip), vehicle: saline): 132 % of control

Question: For O=C(O)COc1ccc(Cl)cc1Cl, which survivor count (dose: 400.0 mg/kg/injection, schedule: Q01DX009 (ip), vehicle: saline) is on record?
Answer: 3 of 6

Question: How did the survivor count [2] turn out when O=C(CNC(=O)NCc1ccccc1)N/N=C/c1cccc([N+](=O)[O-])c1 was run?
Answer: 3 of 3

Question: And the survivor count [3]?
Answer: 3 of 3

Question: Nc1ccc(Nc2ccccc2)cc1 was tested. Which survivor count (dose: 400.0 mg/kg/injection, schedule: Q04DX002 (ip), vehicle: Klucel (hydroxypropylcellulose) (HPC)) did it give?
Answer: 0 of 3

Question: For CC[N+](CC)(CC)Cc1ccccc1, which survivor count (dose: 50.0 mg/kg/injection, schedule: Q01DX009 (ip), vehicle: Klucel (hydroxypropylcellulose) (HPC)) is on record?
Answer: 3 of 6

Question: And the survivor count (dose: 100.0 mg/kg/injection, schedule: Q01DX001 (ip), vehicle: saline)?
Answer: 0 of 6, 1 of 6, 2 of 6 (2×)

Question: And the survivor count [4]?
Answer: 0 of 6

Question: What about the survivor count (dose: 100.0 mg/kg/injection, schedule: Q04DX003 (ip), vehicle: saline) of the same molecule?
Answer: 0 of 6, 1 of 6, 5 of 6

Question: And the survivor count [5]?
Answer: 0 of 6 (2×)

Question: And the survivor count [6]?
Answer: 0 of 6

Question: What about the survivor count (dose: 200.0 mg/kg/injection, schedule: Q04DX003 (ip), vehicle: saline) of the same molecule?
Answer: 0 of 6 (2×)

Question: What about the survivor count [7] of the same molecule?
Answer: 0 of 6 (2×)

Question: What about the survivor count [8] of the same molecule?
Answer: 0 of 6

Question: And the survivor count [9]?
Answer: 0 of 6 and 2 of 6

Question: For COc1ccc(OC)c2c(C(O)CNC34CC5CC(CC(C5)C3)C4)cc(-c3ccc(Cl)cc3)nc12 (stereo not drawn), which survivor count (dose: 100.0 mg/kg/injection, schedule: Q01DX009 (ip), vehicle: other) is on record?
Answer: 6 of 6

Question: And the survivor count (dose: 200.0 mg/kg/injection, schedule: Q01DX009 (ip), vehicle: other)?
Answer: 6 of 6

Question: What about the survivor count (dose: 400.0 mg/kg/injection, schedule: Q01DX009 (ip), vehicle: other) of the same molecule?
Answer: 3 of 6

Question: How did the survivor count (dose: 200.0 mg/kg/injection, schedule: Q01DX Z (ip), vehicle: methylcellulose (MC)) turn out when CC1CN(Cc2ccccc2)C(=O)N(c2ccccc2)C1=O (stereo not drawn) was run?
Answer: 3 of 6

Question: How did the survivor count [10] turn out when CCN=C(N)SCC was run?
Answer: 0 of 3

Question: CSc1ccc(OC(=O)Nc2cc([N+](=O)[O-])ccc2F)cc1C was tested. Which T/C [10] did it give?
Answer: 126 % of control

Question: CC(=O)OCC1(C[N+](C)(C)C)CCC1 was tested. Which survivor count [9] did it give?
Answer: 3 of 6

Question: For CN/N=C/c1ccccc1, which survivor count [2] is on record?
Answer: 2 of 3

Question: What about the survivor count [3] of the same molecule?
Answer: 0 of 3

Question: And the survivor count [11]?
Answer: 0 of 3

Question: CC(=O)C(C(C)=O)c1ccccc1.CC(=O)C(C(C)=O)c1ccccc1.[Ni] was tested. Which survivor count (dose: 50.0 mg/kg/injection, schedule: Q01DX009 (ip), vehicle: saline) did it give?
Answer: 0 of 6

Question: What about the survivor count (dose: 75.0 mg/kg/injection, schedule: Q01DX009 (ip), vehicle: saline) of the same molecule?
Answer: 0 of 6

Question: And the survivor count (dose: 150.0 mg/kg/injection, schedule: Q01DX009 (ip), vehicle: saline)?
Answer: 0 of 6

Question: Which results are given for Cc1nc2ccccc2n1C?
Answer: survivor count [3]: 3 of 6; survivor count (dose: 400.0 mg/kg/injection, schedule: Q01DX009 (ip), vehicle: saline with Tween-80): 0 of 6

Question: Which results are given for C[CH2][Ge]([CH2]C)[O][Ge]([CH2]C)[CH2]C?
Answer: survivor count (dose: 100.0 mg/kg/injection, schedule: Q04DX002 (ip), vehicle: saline with Tween-80): 0 of 3; survivor count (dose: 200.0 mg/kg/injection, schedule: Q04DX002 (ip), vehicle: saline with Tween-80): 0 of 3; survivor count [11]: 0 of 3

Question: For Cc1ccc(S(=O)(=O)OCCN(CCOS(=O)(=O)c2ccc(C)cc2)c2ccc(N=O)cc2)cc1, which survivor count [5] is on record?
Answer: 1 of 4

Question: What about the survivor count [7] of the same molecule?
Answer: 0 of 4

Question: How did the survivor count (dose: 150.0 mg/kg/injection, schedule: Q01DX009 (ip), vehicle: saline with Tween-80) turn out when c1ccc2c(c1)OP(OP1Oc3ccccc3O1)O2 was run?
Answer: 3 of 6

Question: And the survivor count (dose: 225.0 mg/kg/injection, schedule: Q01DX009 (ip), vehicle: saline with Tween-80)?
Answer: 0 of 6

Question: What about the survivor count (dose: 335.0 mg/kg/injection, schedule: Q01DX009 (ip), vehicle: saline with Tween-80) of the same molecule?
Answer: 0 of 6

Question: How did the survivor count (dose: 100.0 mg/kg/injection, schedule: Q04DX003 (ip), vehicle: Klucel (hydroxypropylcellulose) (HPC)) turn out when Cc1ccc(S(=O)(=O)N=Nc2c(O)[nH]c3cc(O)c(C(=O)O)cc23)cc1 was run?
Answer: 3 of 3

Question: CNC(=O)OCC1=CC(=O)C(C)=CC1=O was tested. Which survivor count (dose: 50.0 mg/kg/injection, schedule: Q04DX003 (ip), vehicle: gum acacia) did it give?
Answer: 0 of 6

Question: And the survivor count (dose: 100.0 mg/kg/injection, schedule: Q04DX003 (ip), vehicle: gum acacia)?
Answer: 1 of 6

Question: What about the survivor count (dose: 200.0 mg/kg/injection, schedule: Q04DX003 (ip), vehicle: gum acacia) of the same molecule?
Answer: 0 of 6

Question: What about the survivor count (dose: 400.0 mg/kg/injection, schedule: Q04DX003 (ip), vehicle: gum acacia) of the same molecule?
Answer: 0 of 6

Question: How did the survivor count [4] turn out when S=C(NCc1ccc(Cl)c(Cl)c1)NCc1ccc(Cl)c(Cl)c1 was run?
Answer: 0 of 3 and 0 of 6

Question: And the survivor count [6]?
Answer: 0 of 6

Question: And the survivor count [8]?
Answer: 0 of 6
